No constants are given. Whether binding was seen depends on the method and setting. Binding seen in cells or lysates may run through a third protein. These calls come from enrichment with a bait or labelling near it, and not all partners need be listed.
target: Alpha-enolase (ENO1) (human (endogenous in Raji)) (UniProt P06733); experiment: affinity purification with mass spectrometry; Raji cell lysates pre-cleared with Protein A/G beads, immunoprecipitated overnight at 4°C with anti-ENO1 antibody (anti-IgG as negative control); washes with low-salt (150 mM NaCl) and high-salt (500 mM NaCl) buffer, 50 mM Tris-HCl pH 7.4, 0.1% NP-40; trypsin digest, LC-MS/MS

Protein sequences, listed by entry. Tags and fused reporters are not part of them. Residues count along the entry.
UniProt P06733: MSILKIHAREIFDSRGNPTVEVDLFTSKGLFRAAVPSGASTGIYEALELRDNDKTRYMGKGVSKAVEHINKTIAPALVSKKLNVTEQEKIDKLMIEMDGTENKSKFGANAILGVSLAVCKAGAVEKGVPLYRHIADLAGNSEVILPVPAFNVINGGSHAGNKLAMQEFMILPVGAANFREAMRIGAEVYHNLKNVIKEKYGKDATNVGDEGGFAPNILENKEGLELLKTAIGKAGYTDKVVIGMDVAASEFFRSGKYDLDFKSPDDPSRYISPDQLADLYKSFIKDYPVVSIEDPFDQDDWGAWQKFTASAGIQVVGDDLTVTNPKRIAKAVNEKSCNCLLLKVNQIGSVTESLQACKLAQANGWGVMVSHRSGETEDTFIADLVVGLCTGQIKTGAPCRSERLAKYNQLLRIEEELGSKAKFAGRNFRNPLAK
UniProt O75197, residues 32-1615: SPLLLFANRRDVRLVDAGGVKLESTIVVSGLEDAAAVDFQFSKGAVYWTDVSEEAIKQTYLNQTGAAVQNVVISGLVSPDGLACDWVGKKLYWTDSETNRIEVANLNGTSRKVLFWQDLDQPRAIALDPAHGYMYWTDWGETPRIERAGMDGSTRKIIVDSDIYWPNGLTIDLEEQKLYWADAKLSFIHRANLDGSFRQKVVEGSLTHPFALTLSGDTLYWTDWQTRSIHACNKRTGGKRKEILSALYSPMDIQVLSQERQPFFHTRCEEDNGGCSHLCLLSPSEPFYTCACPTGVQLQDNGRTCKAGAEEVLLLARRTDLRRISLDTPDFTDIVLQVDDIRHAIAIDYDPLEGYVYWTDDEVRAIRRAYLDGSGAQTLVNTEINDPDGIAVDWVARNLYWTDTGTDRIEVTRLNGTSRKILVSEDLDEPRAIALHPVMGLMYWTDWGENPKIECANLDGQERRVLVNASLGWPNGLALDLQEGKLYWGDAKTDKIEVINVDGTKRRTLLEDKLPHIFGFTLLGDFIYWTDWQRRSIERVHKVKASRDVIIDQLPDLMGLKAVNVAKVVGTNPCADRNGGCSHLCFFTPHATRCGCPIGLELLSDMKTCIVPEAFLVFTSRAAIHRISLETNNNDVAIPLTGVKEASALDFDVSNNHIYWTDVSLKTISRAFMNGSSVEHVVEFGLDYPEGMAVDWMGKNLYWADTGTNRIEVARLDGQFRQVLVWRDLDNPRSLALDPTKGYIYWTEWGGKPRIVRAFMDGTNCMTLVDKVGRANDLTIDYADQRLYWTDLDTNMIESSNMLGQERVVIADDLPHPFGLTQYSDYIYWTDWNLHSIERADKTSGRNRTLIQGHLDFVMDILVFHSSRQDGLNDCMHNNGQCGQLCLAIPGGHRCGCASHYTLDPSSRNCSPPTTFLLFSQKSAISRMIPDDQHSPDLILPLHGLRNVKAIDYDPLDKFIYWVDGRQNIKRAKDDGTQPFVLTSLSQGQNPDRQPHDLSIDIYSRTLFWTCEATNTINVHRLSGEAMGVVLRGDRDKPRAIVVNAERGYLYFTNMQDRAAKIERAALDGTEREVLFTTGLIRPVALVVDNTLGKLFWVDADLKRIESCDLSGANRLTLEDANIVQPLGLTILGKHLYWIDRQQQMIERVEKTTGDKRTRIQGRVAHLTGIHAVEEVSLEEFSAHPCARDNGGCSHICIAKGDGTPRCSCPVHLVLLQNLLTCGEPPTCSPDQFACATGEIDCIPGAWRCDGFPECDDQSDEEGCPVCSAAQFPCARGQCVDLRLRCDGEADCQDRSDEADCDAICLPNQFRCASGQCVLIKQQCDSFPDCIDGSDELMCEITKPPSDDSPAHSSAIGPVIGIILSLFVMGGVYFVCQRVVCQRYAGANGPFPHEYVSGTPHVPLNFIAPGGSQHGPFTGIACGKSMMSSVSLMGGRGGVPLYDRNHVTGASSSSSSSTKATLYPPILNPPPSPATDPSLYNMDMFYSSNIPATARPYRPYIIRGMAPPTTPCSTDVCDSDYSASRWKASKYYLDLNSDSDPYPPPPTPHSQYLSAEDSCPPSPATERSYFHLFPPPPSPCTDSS
UniProt O14744: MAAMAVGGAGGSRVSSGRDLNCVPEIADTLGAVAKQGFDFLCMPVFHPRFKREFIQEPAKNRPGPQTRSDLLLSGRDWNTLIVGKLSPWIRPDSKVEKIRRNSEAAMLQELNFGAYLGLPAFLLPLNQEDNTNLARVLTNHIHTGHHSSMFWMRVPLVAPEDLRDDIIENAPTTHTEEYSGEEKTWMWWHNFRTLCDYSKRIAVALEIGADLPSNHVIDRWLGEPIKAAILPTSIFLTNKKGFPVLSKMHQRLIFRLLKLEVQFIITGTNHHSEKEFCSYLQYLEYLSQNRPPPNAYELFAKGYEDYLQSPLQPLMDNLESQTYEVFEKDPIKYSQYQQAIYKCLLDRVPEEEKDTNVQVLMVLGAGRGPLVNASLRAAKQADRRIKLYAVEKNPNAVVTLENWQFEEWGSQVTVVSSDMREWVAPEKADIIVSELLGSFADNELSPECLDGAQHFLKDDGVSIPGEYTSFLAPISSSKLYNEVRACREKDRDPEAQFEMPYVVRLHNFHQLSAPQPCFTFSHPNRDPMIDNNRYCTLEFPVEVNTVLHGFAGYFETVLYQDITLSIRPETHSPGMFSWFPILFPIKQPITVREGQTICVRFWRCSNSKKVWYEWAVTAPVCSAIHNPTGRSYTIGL

Row | Molecule | binding
1 | SYNE2 (from UniProt Q8WXH0 1-6885) | binds
2 | CHERP (protein, UniProt Q8IWX8 1-916) MEMPLPPDDQELRNVIDKLAQFVARNGPEFEKMTMEKQKDNPKFSFLFGGEFYSYYKCKLALEQQQLICKQQTPELEPAATMPPLPQPPLAPAAPIPPAQGAPSMDELIQQSQWNLQQQEQHLLALRQEQVTAAVAHAVEQQMQKLLEETQLDMNEFDNLLQPIIDTCTKDAISAGKNWMFSNAKSPPHCELMAGHLRNRITADGAHFELRLHLIYLINDVLHHCQRKQARELLAALQKVVVPIYCTSFLAVEEDKQQKIARLLQLWEKNGYFDDSIIQQLQSPALGLGQYQATLINEYSSVVQPVQLAFQQQIQTLKTQHEEFVTSLAQQQQQQQQQQQQLQMPQMEAEVKATPPPPAPPPAPAPAPAIPPTTQPDDSKPPIQMPGSSEYEAPGGVQDPAAAGPRGPGPHDQIPPNKPPWFDQPHPVAPWGQQQPPEQPPYPHHQGGPPHCPPWNNSHEGMWGEQRGDPGWNGQRDAPWNNQPDAAWNSQFEGPWNSQHEQPPWGGGQREPPFRMQRPPHFRGPFPPHQQHPQFNQPPHPHNFNRFPPRFMQDDFPPRHPFERPPYPHRFDYPQGDFPAEMGPPHHHPGHRMPHPGINEHPPWAGPQHPDFGPPPHGFNGQPPHMRRQGPPHINHDDPSLVPNVPYFDLPAGLMAPLVKLEDHEYKPLDPKDIRLPPPMPPSERLLAAVEAFYSPPSHDRPRNSEGWEQNGLYEFFRAKMRARRRKGQEKRNSGPSRSRSRSKSRGRSSSRSNSRSSKSSGSYSRSRSRSCSRSYSRSRSRSRSRSRSSRSRSRSQSRSRSKSYSPGRRRRSRSRSPTPPSSAGLGSNSAPPIPDSRLGEENKGHQMLVKMGWSGSGGLGAKEQGIQDPIKGGDVRDKWDQYKGVGVALDDPYENYRRNKSYSFIARMKARDECK | binds
3 | SLC25A6 (protein, UniProt P12236 1-298) MTEQAISFAKDFLAGGIAAAISKTAVAPIERVKLLLQVQHASKQIAADKQYKGIVDCIVRIPKEQGVLSFWRGNLANVIRYFPTQALNFAFKDKYKQIFLGGVDKHTQFWRYFAGNLASGGAAGATSLCFVYPLDFARTRLAADVGKSGTEREFRGLGDCLVKITKSDGIRGLYQGFSVSVQGIIIYRAAYFGVYDTAKGMLPDPKNTHIVVSWMIAQTVTAVAGVVSYPFDTVRRRMMMQSGRKGADIMYTGTVDCWRKIFRDEGGKAFFKGAWSNVLRGMGGAFVLVLYDELKKVI | binds

Second part, the molecule after the results:

Row | binding | Molecule
4 | binds | LRP5 (from UniProt O75197 32-1615)
5 | binds | PRMT5 (from UniProt O14744 1-637)

Reference: paper PMC12588913
